No constants are given. Whether binding was seen depends on the method and setting. In cells and extracts the contact can be indirect. A yes stands for co-enrichment or nearness to the bait. Other partners may have been found. Tags and fused reporters may be left off the sequences shown.

Data on 3 molecules can be found in article PMC5261017.

The experiment addresses T1, Heme oxygenase 1 (recombinant FLAGHO-1) (human) (UniProt P09601).
T1 sequence: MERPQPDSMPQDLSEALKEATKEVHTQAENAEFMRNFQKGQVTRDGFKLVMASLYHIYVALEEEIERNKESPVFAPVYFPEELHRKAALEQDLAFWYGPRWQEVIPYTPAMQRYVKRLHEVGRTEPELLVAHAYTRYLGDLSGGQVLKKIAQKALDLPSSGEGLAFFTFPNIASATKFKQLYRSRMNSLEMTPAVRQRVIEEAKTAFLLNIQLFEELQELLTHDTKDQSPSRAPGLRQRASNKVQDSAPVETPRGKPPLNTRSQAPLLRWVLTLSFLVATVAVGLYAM
Put plainly: affinity purification with mass spectrometry; PC3 cells transiently transfected with FLAGHO-1 or empty FLAG vector and treated with H2O2 (200 uM); extract in 20 mM Tris, 150 mM NaCl, 5 mM MgCl2, 0.5% NP40, pH 7.5; Flag magnetic beads 2 h at 4 °C; eluted with 3XFLAG peptide; trypsin digest, LC-ESI MS/MS; only proteins differential against the empty FLAG vector were kept.

B1: Isoform 4 of Spastin (protein, UniProt Q9UBP0-4 1-498)
chain: MAAKRSSGAAPAPASASAPAPVPGGEAERVRVFHKQAFEYISIALRIDEDEKAGQKEQAVEWYKKGIEELEKGIAVIVTGQGEQCERARRLQAKMMTNLVMAKDRLQLLESGAVPKRKDPLTHTSNSLPRSKTVMKTGSAGLSGHHRAPSYSGLSMVSGVKQGSGPAPTTHKGTPKTNRTNKPSTPTTATRKKKDLKNFRNVDSNLANLIMNEIVDNGTAVKFDDIAGQDLAKQALQEIVILPSLRPELFTGLRAPARGLLLFGPPGNGKTMLAKAVAAESNATFFNISAASLTSKYVGEGEKLVRALFAVARELQPSIIFIDEVDSLLCERREGEHDASRRLKTEFLIEFDGVQSAGDDRVLVMGATNRPQELDEAVLRRFIKRVYVSLPNEETRLLLLKNLLCKQGSPLTQKELAQLARMTDGYSGSDLTALAKDAALGPIRELKPEQVKNMSASEMRNIRLSDFTESLKKIKRSVSPQTLEAYIRWNKDFGDTTV
As for B1, the binding result is reported as “binds”.

B2: Spermatogenesis-associated protein 7 (protein, UniProt Q9P0W8 1-599)
chain: MDGSRRVRATSVLPRYGPPCLFKGHLSTKSNAFCTDSSSLRLSTLQLVKNHMAVHYNKILSAKAAVDCSVPVSVSTSIKYADQQRREKLKKELAQCEKEFKLTKTAMRANYKNNSKSLFNTLQKPSGEPQIEDDMLKEEMNGFSSFARSLVPSSERLHLSLHKSSKVITNGPEKNSSSSPSSVDYAASGPRKLSSGALYGRRPRSTFPNSHRFQLVISKAPSGDLLDKHSELFSNKQLPFTPRTLKTEAKSFLSQYRYYTPAKRKKDFTDQRIEAETQTELSFKSELGTAETKNMTDSEMNIKQASNCVTYDAKEKIAPLPLEGHDSTWDEIKDDALQHSSPRAMCQYSLKPPSTRKIYSDEEELLYLSFIEDVTDEILKLGLFSNRFLERLFERHIKQNKHLEEEKMRHLLHVLKVDLGCTSEENSVKQNDVDMLNVFDFEKAGNSEPNELKNESEVTIQQERQQYQKALDMLLSAPKDENEIFPSPTEFFMPIYKSKHSEGVIIQQVNDETNLETSTLDENHPSISDSLTDRETSVNVIEGDSDPEKVEISNGLCGLNTSPSQSVQFSSVKGDNNHDMELSTLKIMEMSIEDCPLDV
With B2, the binding result is given as “binds”.

B3: K-Cl co-transporter KCC4 (protein, UniProt Q9Y666 1-1083)
chain: MPTNFTVVPVEAHADGGGDETAERTEAPGTPEGPEPERPSPGDGNPRENSPFLNNVEVEQESFFEGKNMALFEEEMDSNPMVSSLLNKLANYTNLSQGVVEHEEDEESRRREAKAPRMGTFIGVYLPCLQNILGVILFLRLTWIVGVAGVLESFLIVAMCCTCTMLTAISMSAIATNGVVPAGGSYYMISRSLGPEFGGAVGLCFYLGTTFAGAMYILGTIEIFLTYISPGAAIFQAEAAGGEAAAMLHNMRVYGTCTLVLMALVVFVGVKYVNKLALVFLACVVLSILAIYAGVIKSAFDPPDIPVCLLGNRTLSRRSFDACVKAYGIHNNSATSALWGLFCNGSQPSAACDEYFIQNNVTEIQGIPGAASGVFLENLWSTYAHAGAFVEKKGVPSVPVAEESRASALPYVLTDIAASFTLLVGIYFPSVTGIMAGSNRSGDLKDAQKSIPTGTILAIVTTSFIYLSCIVLFGACIEGVVLRDKFGEALQGNLVIGMLAWPSPWVIVIGSFFSTCGAGLQSLTGAPRLLQAIARDGIVPFLQVFGHGKANGEPTWALLLTVLICETGILIASLDSVAPILSMFFLMCYLFVNLACAVQTLLRTPNWRPRFKFYHWTLSFLGMSLCLALMFICSWYYALSAMLIAGCIYKYIEYRGAEKEWGDGIRGLSLNAARYALLRVEHGPPHTKNWRPQVLVMLNLDAEQAVKHPRLLSFTSQLKAGKGLTIVGSVLEGTYLDKHMEAQRAEENIRSLMSTEKTKGFCQLVVSSSLRDGMSHLIQSAGLGGLKHNTVLMAWPASWKQEDNPFSWKNFVDTVRDTTAAHQALLVAKNVDSFPQNQERFGGGHIDVWWIVHDGGMLMLLPFLLRQHKVWRKCRMRIFTVAQVDDNSIQMKKDLQMFLYHLRISAEVEVVEMVENDISAFTYERTLMMEQRSQMLKQMQLSKNEQEREAQLIHDRNTASHTAAAARTQAPPTPDKVQMTWTREKLIAEKYRSRDTSLSGFKDLFSMKPDQSNVRRMHTAVKLNGVVLNKSQDAQLVLLNMPGPPKNRQGDENYMEFLEVLTEGLNRVLLVRGGGREVITIYS
For B3, the binding result is “binds”.
